{"source": "PubChem BioAssay AID1259308 – NCATS – 2017", "test": "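Knock-downs that increase output of a recombinant reporter protein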 (primary screen)", "cell system": "human HEK293 embryonic kidney cells stably expressing firefly luciferase (HEK-CMV-Luc2-Hygro)", "reagents": "single siRNA against human genes, 0.8 pmol siRNA per well", "duration": "72 h", "detection": "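Luciferase light (ONE-Glo) measured on one replicate plate set and viability (CellTiter-Glo) on the other, scaled to a negative control siRNA, with robust z-scores and luciferase per cell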", "reading the numbers": "total luciferase, z-score: higher = more reporter protein produced", "active means": "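Active when the median/MAD z-score for overall luciferase is greater than 3; a gene was taken forward for validation with new siRNAs if at least two of its three siRNAs passed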", "calls": "active = raised luciferase; inactive = no rise", "note": "Here is an unselected part of about 59,000 reagents tested. In the full data, about 1,510 (2.6%) got an active call. 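Calls use total luciferase alone and ignore viability, so some active siRNAs may act by altering cell number.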 Reagents against one gene are numbered here. Not all columns of the deposit are shown. No sequences are given here."}
{"Gene": "SHROOM3 (shroom family member 3)", "reagent no.": 1, "total luciferase, z-score": -1.42, "Call": "inactive"}
{"Gene": "SHROOM3 (shroom family member 3)", "reagent no.": 2, "total luciferase, z-score": -0.308, "Call": "inactive"}
{"Gene": "SHROOM3 (shroom family member 3)", "reagent no.": 3, "total luciferase, z-score": -0.52, "Call": "inactive"}
{"Gene": "FNDC11 (fibronectin type III domain containing 11)", "reagent no.": 1, "total luciferase, z-score": 0.906, "Call": "inactive"}
{"Gene": "FNDC11 (fibronectin type III domain containing 11)", "reagent no.": 2, "total luciferase, z-score": -0.695, "Call": "inactive"}
{"Gene": "FNDC11 (fibronectin type III domain containing 11)", "reagent no.": 3, "total luciferase, z-score": 1.17, "Call": "inactive"}
{"Gene": "TTC9 (tetratricopeptide repeat domain 9)", "reagent no.": 1, "total luciferase, z-score": 5.23, "Call": "active"}
{"Gene": "TTC9 (tetratricopeptide repeat domain 9)", "reagent no.": 2, "total luciferase, z-score": -0.296, "Call": "inactive"}
{"Gene": "TTC9 (tetratricopeptide repeat domain 9)", "reagent no.": 3, "total luciferase, z-score": -1.71, "Call": "inactive"}

In a second layout: entries from further up.
Gene,reagent no.,"total luciferase, z-score",Call
SHROOM3 (shroom family member 3),1,-1.42,inactive
SHROOM3 (shroom family member 3),2,-0.308,inactive

The list goes on.
{"Gene": "BOK (BCL2 family apoptosis regulator BOK)", "reagent no.": 1, "total luciferase, z-score": 1.33, "Call": "inactive"}
{"Gene": "BOK (BCL2 family apoptosis regulator BOK)", "reagent no.": 2, "total luciferase, z-score": -0.0525, "Call": "inactive"}
{"Gene": "BOK (BCL2 family apoptosis regulator BOK)", "reagent no.": 3, "total luciferase, z-score": -1.27, "Call": "inactive"}
{"Gene": "CBX5 (chromobox 5)", "reagent no.": 1, "total luciferase, z-score": -0.228, "Call": "inactive"}
{"Gene": "CBX5 (chromobox 5)", "reagent no.": 2, "total luciferase, z-score": 0.0889, "Call": "inactive"}
{"Gene": "CBX5 (chromobox 5)", "reagent no.": 3, "total luciferase, z-score": -1.76, "Call": "inactive"}
{"Gene": "CYP4F3 (cytochrome P450 family 4 subfamily F member 3)", "reagent no.": 1, "total luciferase, z-score": 0.628, "Call": "inactive"}
{"Gene": "CYP4F3 (cytochrome P450 family 4 subfamily F member 3)", "reagent no.": 2, "total luciferase, z-score": -1.1, "Call": "inactive"}
{"Gene": "CYP4F3 (cytochrome P450 family 4 subfamily F member 3)", "reagent no.": 3, "total luciferase, z-score": 2.24, "Call": "inactive"}
{"Gene": "IL18 (interleukin 18)", "reagent no.": 1, "total luciferase, z-score": 4.01, "Call": "active"}
{"Gene": "IL18 (interleukin 18)", "reagent no.": 2, "total luciferase, z-score": -1.84, "Call": "inactive"}
{"Gene": "IL18 (interleukin 18)", "reagent no.": 3, "total luciferase, z-score": 2.14, "Call": "inactive"}
